Assay results published in PubChem BioAssay AID242 (DTP/NCI, 2004).
The list does not hold the whole screen: it covers a few groups of compounds. Not every dose and run of a compound is shown. T/C is the treated group as % of the vehicle group. Where survival is the endpoint, the PubChem record calls one and a half times the control and up active, and a quarter to a half above the control has no call in these data; cut-offs in other NCI protocols can differ. Schedule codes are those of the source, read here as Q, the interval in days (D) or hours (H), X, the number of doses.

Test system: BDF1 mice, Lymphoma 8 ip, survival T/C
Assay: NCI In Vivo Anticancer Drug Screen. Data for tumor model Lymphoma 8 (intraperitoneal) in B6D2F1 (BDF1) mice
Conditions: T/C endpoint: survival time, mean or median, schedule: Q01DX010 (ip), vehicle: saline, higher T/C = longer survival
Description: The antitumor activity of compounds was measured in mice bearing transplantable tumors. Survival or tumor size were measured and the results are expressed as the measurement made in the treated group (T) divided by the measurement made in the vehicle treated control group (C). The tumor model used in this assay is Lymphoma 8 (intraperitoneal) in B6D2F1 (BDF1) mice

`NC1CCCCC1.O=P(O)(N(CCCl)CCCl)N1CC1` was tested, and the T/C (dose: 2.5 mg/kg/injection) was 121 % of control, the T/C (dose: 5.0 mg/kg/injection) was 110 % of control and the T/C (dose: 10.0 mg/kg/injection) was 125 % of control. For the same compound, the T/C (dose: 20.0 mg/kg/injection) was 271 % of control.
